# Laboratory results taken from the supplement of paper PMC12067093, “Discovery and optimisation of a covalent ligand for TRIM25 and its application to targeted protein ubiquitination” (Chemical Science, 2025).
# This is one part of the list.
# Compound: CC1Cc2ccccc2N1C(=O)C1CCCN(C1)C(=O)CCl (mixture of isomers) [TRIM25 ligand 11 (diastereomer mixture)]
# Test: probe-labelled cysteine peptide fold change vs DMSO (competition) (log2 fold change); higher = less target engagement (more negative = stronger competition)
# Conditions: 50 µM; THP-1; incubation time: 4 h
# 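Further: competitive chemoproteomic profiling in live THP-1 cells with an iodoacetamide desthiobiotin (IA-DTB) probe, comparing probe-labelled peptide intensities in compound-treated cells against DMSO-treated controls.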
row,Target,probe-labelled cysteine peptide fold change
1,PSMB3_P49720_19_NCVAIAADRR (UniProt P49720),0.0434
2,PSMB2_P49721_91_RNLADCLR (UniProt P49721),-0.0686
3,PTGFRN_Q9P2B2_169_CTAASASPLHTHLALLWEVHR (UniProt Q9P2B2),-0.0696
4,PTPRF_P10586_107_VQRDEAIYECTATNSLGEINTSAK (UniProt P10586),-0.0226
5,PSMB8_P28062_124_VIEINPYLLGTMSGCAADCQYWER (UniProt P28062),-0.195
6,PTER_Q96BW5_36_TLTHEHLAMTFDCCYCPPPPCQEAISK (UniProt Q96BW5),0.331
7,PSME3_P61289_92_LDECEEAFQGTK (UniProt P61289),-0.18
8,PSMC2_P35998_270_ACLIFFDEIDAIGGAR (UniProt P35998),0.0961
9,PTK2B_Q14289_395_RSHLSESCSIESDIYAEIPDETLR (UniProt Q14289),0.214
10,PSMC6_P62333_228_DHQPCIIFMDEIDAIGGR (UniProt P62333),0.0826
11,PTRH2_Q9Y3E5_111_QWEYCGQPK (UniProt Q9Y3E5),-0.0023
12,PSMC3_P17980_400_AVCVEAGMIALR (UniProt P17980),-0.0442
13,PTPRJ_Q12913_1039_QQADSNCGFAEEYEDLK (UniProt Q12913),-0.0752
14,PSMD1_Q99460_633_TPEQCPSVVSLLSESYNPHVR (UniProt Q99460),-0.088
15,PSME3_P61289_92_RRLDECEEAFQGTK (UniProt P61289),-0.00482
16,PSME1_Q06323_22_VDVFREDLCTK (UniProt Q06323),-0.129

# Reprinted at random: 2 entries already listed
row,Target,probe-labelled cysteine peptide fold change
13,PTPRJ_Q12913_1039_QQADSNCGFAEEYEDLK (UniProt Q12913),-0.0752
16,PSME1_Q06323_22_VDVFREDLCTK (UniProt Q06323),-0.129
